At least one peptide structure holds a part that was inferred or is arguable (an end, a ring closure or a residue). Where a SMILES comes first, the peptide text is derived from it.
System: Fischer rats
Assay: Complete blood cell count (CBC) analysis of peripheral blood
Format: in vivo, rat
Conditions: for Basophils Mean ± SD / MCHC Mean ± SD / MCV Mean ± SD / Neutrophils Mean ± SD / Platelets Mean ± SD / RDW - SD Mean ± SD: elsiglutide in rats treated with irinotecan 200 mg/kg/day × 3 days
Procedure: 8 to 12-week-old female Fischer 344/N rats (body weight 160-200 g) were obtained from Harlan Sprague Dawley Inc. (Indianapolis, Ind.).
Irinotecan was purchased as a ready-to-use formulation solution at a concentration of 20 mg/ml (100 mg in a 5 ml vial). For a rat of 150-200 g, an administration up to 2 ml solution (dose of 200 mg/kg/d×3) was required.
Elsiglutide was administered by subcutaneous (S.C) route at 1.8 mg/kg/day once a day for 4 days. Three doses were administered 30 minutes prior to each daily intravenous (I.V) dose of irinotecan. Only the fourth dose of elsiglutide was administered 24 hours after the last dose of irinotecan. Irinotecan was administered by intravenous (I.V) injection at the maximum tolerated and therapeutic dose, 100, 150, 200 mg/kg/day for 3 days.
Hematological (CBC) Analysis • Complete blood cell count (CBC) analysis (days 0, 4, and 9) • From peripheral blood 14 markers, WBC (differential: neutrophils, lymphocytes, eosinophils, monocytes, basophils) and RDW-SD, RBC, HGB, HCT, MCV, MCH, MCHC, and Platelets were analyzed.
The statistical analysis of complete blood cells (CBC) results was carried out. The differences between the mean values in the different treatment groups were analyzed for significance.
Treatment groups and time when specific acquisition of tissues was obtained are outlined below. Fischer Rats (Female), weighing 150 to 180 g (8-12 weeks) were utilized. • Control, histology, d 9 and CBC, baseline, day 4 and day 9 • Control vehicle, histology, d 9 and CBC baseline, d 4 and d 9 • Irinotecan 100 mg/kg/d×3, I.V., histology, d 9 and CBC, baseline, d 4 and d 9 • Irinotecan 150 mg/kg/d×3, I.V., histology, d 9 and CBC, baseline, d 4 and d 9, and CBC, baseline, d 4 and d 9 • Irinotecan 200 mg/kg/d×3, I.V., histology 9, and CBC, d 4 and d 9 • Elsiglutide 1.8 mg/kg/d×4, S.C., histology, d 9 and CBC, baseline, d 4 and d 9 • CBC, baseline, d 4 and d 9 • Elsiglutide 1.8 mg/d×4, S.C+Irinotecan 150 mg/kg/d×3, I.V, histology, d 9, and CBD baseline, d 4 and d9 • Elsiglutide 1.8 mg/d×4, S.C.+Irinotecan 200 mg/kg/d×3, I.V, histology, d 9, and CBC d 4 and d 9 Each treatment groups consisted of 10 rats for histology of bone marrow, spleen and peripheral blood analysis, and for survivors. Evaluation of peripheral blood was carried out on day zero (0), four (4) and day nine (9), bone marrow and spleen analysis after (necropsy) was carried out on day nine (9).

CC[C@H](C)[C@H](NC(=O)[C@H](CC(C)C)NC(=O)[C@H](Cc1c[nH]c2ccccc12)NC(=O)[C@H](C)NC(=O)[C@@H](NC(=O)[C@H](Cc1ccccc1)NC(=O)[C@H](CC(=O)O)NC(=O)[C@H](CCCNC(=N)N)NC(=O)[C@H](C)NC(=O)[C@H](C)NC(=O)[C@H](CC(C)C)NC(=O)[C@H](C)NC(=O)[C@H](CC(=O)O)NC(=O)[C@H](CC(C)C)NC(=O)[C@@H](NC(=O)[C@@H](NC(=O)[C@H](CO)NC(=O)[C@H](CC(C)C)NC(=O)[C@H](CCC(=O)O)NC(=O)[C@H](CO)NC(=O)[C@H](CO)NC(=O)[C@H](Cc1ccccc1)NC(=O)[C@H](CO)NC(=O)CNC(=O)[C@H](CCC(=O)O)NC(=O)CNC(=O)[C@@H](N)Cc1c[nH]cn1)[C@@H](C)O)[C@@H](C)CC)[C@@H](C)CC)C(=O)N[C@@H](C)C(=O)N[C@H](C(=O)N[C@@H](CCCCN)C(=O)N[C@H](C(=O)N[C@H](C(=O)N[C@@H](CC(=O)O)C(=O)N[C@@H](CCCCN)C(=O)N[C@@H](CCCCN)C(=O)N[C@@H](CCCCN)C(=O)N[C@@H](CCCCN)C(=O)N[C@@H](CCCCN)C(=O)N[C@@H](CCCCN)C(N)=O)[C@@H](C)O)[C@@H](C)CC)[C@@H](C)O [elsiglutide] (H-HGEGSFSSELSTILDALAARDFIAWLIATKITDKKKKKK-NH2)
development of neutropenia (FIG. 1, Day 4, combination group with irinotecan): did not prevent
Basophils Mean ± SD (Day 4): 1.80 ± 0.84
MCHC Mean ± SD (Day 4): 34.88 ± 0.15
MCV Mean ± SD (Day 4): 51.00 ± 0.73
Neutrophils Mean ± SD (Day 4): 1.49 ± 0.07
Platelets Mean ± SD (Day 4): 73.64 ± 10.66
RDW - SD Mean ± SD (Day 4): 25.98 ± 0.53
Basophils Mean ± SD (Day 9): 0.2 ± 0.45
MCHC Mean ± SD (Day 9): 32.18 ± 0.83
MCV Mean ± SD (Day 9): 55.78 ± 1.58
Neutrophils Mean ± SD (Day 9): 1.03 ± 0.47
Platelets Mean ± SD (Day 9): 58.34 ± 0.51
RDW - SD Mean ± SD (Day 9): 31.72 ± 4.45
